Test results as given in paper PMC4824078.

Molecular target: T1, C.Csp231I WT (crude extract) (Citrobacter sp. RFL231) (UniProt Q32WH4)
T1 sequence (looked up, limits assumed): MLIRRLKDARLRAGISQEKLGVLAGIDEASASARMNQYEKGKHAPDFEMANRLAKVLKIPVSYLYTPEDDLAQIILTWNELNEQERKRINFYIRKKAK
Assay: EMSA
Conditions: crude extract 0-30 ug/ml, 1 ug competitor DNA; 50 mM Tris-HCl pH 8.0, 1 mM DTT, 10 mM MgCl2, 22 C, 20 min, 100 nM DNA; 6% native PAGE in 0.5x TBE; protein in a lysate after overexpression; label: 5'-biotin on strand 1

Sequence: TAATCACACTAAGGAAAACTTAGTAAAATTGC (double strand) [FBIOT1/BIOT1 32-mer (OL C-box)]
- binding result: binds

The exact form of at least one protein or probe is not confirmed. Results from cells or extracts need not show a direct contact. At least one verdict rests on a figure or table, not on a statement of the authors. Protein sequences can lack the tags named with them.
